# Screening data, single-dose tests

Sequences of proteins named here, by UniProt entry; tags and fusion partners are left off. Residues count along the entry.
UniProt Q4DA54, 1-478: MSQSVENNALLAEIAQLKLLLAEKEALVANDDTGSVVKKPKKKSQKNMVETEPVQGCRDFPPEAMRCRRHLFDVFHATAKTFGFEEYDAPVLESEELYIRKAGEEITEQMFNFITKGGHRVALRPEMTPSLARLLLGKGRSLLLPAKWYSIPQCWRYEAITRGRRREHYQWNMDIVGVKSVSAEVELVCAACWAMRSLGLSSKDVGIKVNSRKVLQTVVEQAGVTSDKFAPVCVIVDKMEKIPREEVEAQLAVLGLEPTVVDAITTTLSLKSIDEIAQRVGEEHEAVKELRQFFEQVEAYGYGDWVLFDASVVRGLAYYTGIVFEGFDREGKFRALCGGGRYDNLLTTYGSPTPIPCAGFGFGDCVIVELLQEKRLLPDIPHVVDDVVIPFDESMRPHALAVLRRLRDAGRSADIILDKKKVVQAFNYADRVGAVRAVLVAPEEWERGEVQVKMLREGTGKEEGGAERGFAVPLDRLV
UniProt A4I591, 1-473: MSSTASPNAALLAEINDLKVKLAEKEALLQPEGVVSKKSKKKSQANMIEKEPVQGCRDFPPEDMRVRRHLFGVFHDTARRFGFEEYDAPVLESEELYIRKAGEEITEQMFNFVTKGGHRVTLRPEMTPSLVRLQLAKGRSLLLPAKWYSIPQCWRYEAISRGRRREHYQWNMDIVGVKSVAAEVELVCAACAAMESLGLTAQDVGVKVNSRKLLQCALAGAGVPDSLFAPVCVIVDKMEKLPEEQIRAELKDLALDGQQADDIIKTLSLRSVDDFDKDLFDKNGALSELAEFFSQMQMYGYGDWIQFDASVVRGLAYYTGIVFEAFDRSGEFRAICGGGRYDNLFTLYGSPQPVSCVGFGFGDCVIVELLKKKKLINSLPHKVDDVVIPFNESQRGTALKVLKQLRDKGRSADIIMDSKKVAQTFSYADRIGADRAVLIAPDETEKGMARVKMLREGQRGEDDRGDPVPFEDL
UniProt P9WPC5, whole entry: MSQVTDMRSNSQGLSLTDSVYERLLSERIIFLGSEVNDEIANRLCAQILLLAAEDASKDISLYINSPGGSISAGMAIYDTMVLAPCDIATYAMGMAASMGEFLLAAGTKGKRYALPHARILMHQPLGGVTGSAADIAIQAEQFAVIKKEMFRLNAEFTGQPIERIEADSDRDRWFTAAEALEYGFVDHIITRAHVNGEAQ
UniProt P9WPC3, whole entry partner: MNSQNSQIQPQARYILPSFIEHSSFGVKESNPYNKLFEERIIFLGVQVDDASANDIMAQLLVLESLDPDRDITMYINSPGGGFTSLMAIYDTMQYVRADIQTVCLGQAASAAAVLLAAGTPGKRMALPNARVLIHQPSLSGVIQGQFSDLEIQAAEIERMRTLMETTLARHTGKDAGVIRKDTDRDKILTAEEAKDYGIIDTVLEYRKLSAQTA

Toxoplasma: 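Assay of Toxoplasma gondii numbers, read through their beta-galactosidase reporter with a colour substrate. Concentration: 10 µM. Higher reads as fewer parasites (inferred from which compounds were picked for retests). Of about 67,000 compounds tested this way, about 260 (0.38%) reached 50% or more in at least one test.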
Leishmania in macrophages: 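Cell assay of Leishmania donovani living inside macrophages; the read-out is not stated. Compounds at 30 µM. Direction is inferred from retests: higher values go with stronger inhibition. Size under these conditions: about 69,000 compounds, about 1,000 of them at 50% or above in at least one test.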
TcHisRS: 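Histidine-tRNA ligase, Trypanosoma cruzi CL Brener (UniProt Q4DA54). Enzyme assay of histidyl-tRNA synthetase; the read-out is not stated. Concentration: 30 µM. Higher reads as stronger inhibition (inferred: compounds with an IC50 in retests scored well above the rest). About 69,000 compounds were tested under these conditions; 0.045% (about 31) showed 50% or more at least once.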
LiHisRS: 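Histidine-tRNA ligase, Leishmania infantum (UniProt A4I591). Enzyme assay of histidyl-tRNA synthetase; the read-out is not stated. Tested at 30 µM. Higher reads as stronger inhibition (inferred: compounds with an IC50 in retests scored well above the rest). The assay is labelled LdHisRS but filed under L. infantum. Size under these conditions: about 69,000 compounds, about 410 of them at 50% or above in at least one test.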
ClpP1P2: 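ClpP1P2, Mycobacterium tuberculosis (UniProt P9WPC5 and UniProt P9WPC3). Protease assay of ClpP1P2, read by the AMC dye that it sets free. Tested at 50 µM. Higher reads as stronger inhibition, judged from the few compounds that gave an IC50. Most other retested compounds had strongly negative values. Size under these conditions: about 69,000 compounds, about 10 of them at 50% or above in at least one test.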
T. brucei: 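Whole-parasite assay of Trypanosoma brucei over 72 hours; the read-out is not stated. Concentration: 30 µM. Higher reads as stronger inhibition (inferred: compounds with an IC50 in retests scored well above the rest). Values scatter widely below zero; nearly all retest evidence comes from the higher of the two concentrations used. Of about 64,000 compounds tested this way, about 940 (1.5%) reached 50% or more in at least one test.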

Values are the deposited “Percent Effect”, in %.
The record does not define 0% and 100%; most values in the screen are far below 50% and negative numbers occur (in some assays of this library far below -100).
The compounds are a random part of those screened.
A dash means the value is not listed here; it may have been measured.

structure	Toxoplasma	Leishmania in macrophages	TcHisRS	LiHisRS	ClpP1P2	T. brucei
COCc1cncc2c1CCN(C(=O)c1ccoc1C)C2	-1.863	15	3.941	17.65	-1.457	-5.565
COC(=O)N1CCN(Cc2ccccc2Cl)CC1	-2.07	-1.616	-2.128	-4.478	1.577	-12.08
CC(=O)NC1CCN(c2nc(C)nc3c2c(C)nn3C)C1 (configuration not stated)	-4.227	18.5	2.597	5.714	17.72	-65.2
O=C(O)C(F)(F)F.[H][C@@]12CCN(Cc3nccs3)[C@]1([H])CC[C@H](C(=O)N1CCC(C)CC1)O2	5.106	3.53	-	-	-	-24.43
O=c1c2sccc2nc2n1CCN(Cc1ccccc1C(F)(F)F)CC2	-	-	-0.7491	18	-12.03	-
O=C1CCN(C(=O)NCCCc2ccc(Cl)cc2Cl)CCN1	-2.722	-25.77	7.071	13.83	-4.369	-29.33
Cc1n[nH]c(C2CN(CC(=O)NCCc3ccc(F)cc3)CCO2)n1 (configuration not stated)	1.215	-51.42	9.202	17.28	-2.504	-23.22
CN(Cc1ccco1)Cc1ccccc1CNC(=O)c1ccncc1	-0.577	14.54	2.5	28.85	-14.72	6.755
O=C(O)C(F)(F)F.O=C(O)C(F)(F)F.[H][C@@]12CCCO[C@]1([H])[C@H](N(C)Cc1ccco1)CN(CC1CCOCC1)C2	1.67	1.881	-	-	-	-16.17
COc1ccccc1OCCN1CCCC(c2cc(C(N)=O)[nH]n2)C1 (configuration not stated)	3.571	-10.15	-1.132	12.16	1.194	1.763
O=C(NCCCn1nc2ccccn2c1=O)Nc1ccc(F)cc1F	9.163	9.02	0.2907	4.386	-28.61	-15.02
Cc1cc2n(n1)CC(CNC1CCN(Cc3ccccc3C)CC1)CN2 (configuration not stated)	-4.306	54.12	8.475	16.98	-10.18	-26.12
CC[C@H](N)Cn1nc(-c2cccs2)oc1=O.Cl	7.751	24.07	-	-	-	4.542
Cn1cc(CN2CCCC(CCc3ccc(F)cc3F)C2)cn1 (configuration not stated)	0.1504	8.305	7.65	5.479	-1.338	-9.237
COc1ccc(C(=O)C2CCCN(Cc3cccc(F)c3)C2)c(OC)c1 (configuration not stated)	-2.997	-12.09	0	7.792	-26.24	-0.508
CN(Cc1ccccc1OC(F)(F)F)C(=O)C1CCCN(C(N)=O)C1 (configuration not stated)	-0.8029	27.22	3.191	21.88	3.862	-16.05
NS(=O)(=O)CCN1CCN(c2cc(F)ccc2F)CC1	4.489	1.266	10.34	-3.896	-7.561	-5.155
NC(=O)c1c(NC(=O)C2CCCO2)sc2c1CCc1ccccc1-2 (configuration not stated)	-16.96	37.29	7	8.696	-12.37	-27.8
Cc1nc(CNC(=O)c2cc(COc3cccc(F)c3)[nH]n2)n[nH]1	-10.58	16.8	2.679	15.93	2.786	-134.5
CC(C)CCNC(=O)C1CCN(c2ccc3nnc(C(C)C)n3n2)CC1	-1.597	-15.99	-0.5848	10.53	1.482	-16.69
Cn1cccc1CN1CCc2c(nc(-c3ccccn3)[nH]c2=O)C1	-5.181	1.282	1.064	7.292	-1.333	100.6
[H][C@@]12CS(=O)(=O)C[C@]1([H])N(C(=O)c1ccc3nccnc3c1)CCN2CCO	16.92	-30.77	-	-	-	23.36
CN(CC1Cc2ccccc2CN1C)C(=O)CSc1nccn1C (configuration not stated)	12.46	42.66	-2.564	4.762	-7.205	-2.2
CNC(=O)C1Cc2ccccc2CN1C(=O)CC(C)C (configuration not stated)	-11.23	17.9	7.937	12	11.93	-21.38
Cc1ccc(-c2ncc(C(=O)N3CCCN4CCC[C@H]4C3)c(O)n2)cc1	-	-	1.807	10.99	-8.42	-
CNc1cncc(C2CCN(C(=O)c3cnco3)CC2)n1	-3.396	0.41	0.8571	6.711	-140.1	7.38
CN(C)CCO[C@@H]1CC[C@H]2[C@H]1OCCN2C(=O)c1ccnnc1	-	-	4.673	25	5.63	-
O=C(O)C(F)(F)F.[H][C@@]12CCN(Cc3nccs3)C[C@@]1([H])O[C@H](C(=O)N1CCC(C)CC1)C2	-24.06	21.8	-	-	-	-65.48
Cn1cnnc1C1CCCN(C(=O)COCc2ccccc2)C1 (configuration not stated)	-12.6	-8.458	3.198	13.16	-12.17	-16.42
CN(Cc1cccc(O)c1)C(=O)c1ccc(CCC(C)(C)O)cc1	1.739	2.929	5.051	1.639	-14.08	-3.303
O=C([C@@H]1COC[C@H]2CN(C3CCCC3)C[C@H]21)N1CCC(F)CC1	-	-	2.062	0	-6.1	-
Cc1ncc(CN2CCOC(CN(C)c3cccnn3)C2)s1 (configuration not stated)	5.906	17.8	-0.8403	6.612	-4.92	23
CC(C)Cc1nc(CSC2CCCN(c3cnn(C)c3)C2=O)no1 (configuration not stated)	-25.78	1.922	4.969	10	-19.27	-5.89
Cc1nc(C)c(COc2ccc(S(=O)(=O)N(C)C)cc2)s1	-14.4	-60.27	3.483	13.25	-6.259	-44.61
CC(CN1CCOCC1)OC(=O)c1ccccc1I.Cl (configuration not stated)	-4.26	29.68	-	-	-	-43.26
c1cncc(COCc2nnc3n2CCN(Cc2ccco2)C3)c1	-	-	12.75	-5.714	1.067	-
Cc1nn(C)c(N2CCOCC2)c1CNC1CCc2ccccc21 (configuration not stated)	-3.446	23.78	6.286	6.78	-25.41	-
CCc1nnsc1C(=O)NCc1nnc2n1CCCCC2	-1.998	14.8	3.191	-4.286	8.211	-25.89
CNC(=O)[C@@H]1C[C@@H]2CCN(Cc3ccoc3)C[C@H]2O1	-	-	0	4.545	-3.054	-
CC(O)CC(C)(C)CNS(=O)(=O)c1cccc(Cl)c1C#N (configuration not stated)	1.939	-7.221	2.646	14.71	-14.2	12.34
CCOC(C)C(=O)N(C)C1CCN(c2ccc(OC)cc2)CC1 (configuration not stated)	-0.7747	43	4.516	19.19	7.088	1.467
COCCN1CCCC2(CCN(C(=O)c3cnc(O)cn3)C2)C1=O (configuration not stated)	-15.03	-0.1411	-16.67	8	-9.486	-40.33
[H][C@@]12CS(=O)(=O)C[C@]1([H])N(Cc1ccc(CCC)o1)CCN2C(=O)N(C)C	2.316	19.16	-	-	-	11.08
Cc1cccc(CNC(=O)c2cccnc2N)c1	32.75	26.02	0.5917	4.138	18.88	-
Cn1cc(NC(=O)Cn2c(CS(C)(=O)=O)nc3ccccc32)cn1	4.072	21.24	1.087	22.86	0.007424	6.636
Cc1ccc2c(n1)N(CC(C)C)CCN(C(=O)Cc1ccccn1)C2.O=C(O)C(F)(F)F.O=C(O)C(F)(F)F	-8.01	4.574	-	-	-	-19.32
CCOC(=O)c1sc(NC(=O)COC)c(C#N)c1C	19.77	8.277	0.8772	1.77	7.547	-
O=C(NCC1CCCO1)c1nc2c(s1)CCCN2Cc1ccccc1 (configuration not stated)	-17.89	-10.76	22.86	45.83	-26.36	-8.952
O=C(Nc1cccc(CNCc2csc(Br)c2)c1)C1CC1	-	-	0	25.76	13.73	-
CCN(CCNCc1ccc(C#N)cc1)C1CC1	6.785	-0.2113	4.04	1.587	-10.45	-23.76
Cc1nc(C)n(CC2CCCN(Cc3ccccc3C#N)C2)n1 (configuration not stated)	-19.07	-11.59	6.395	16.07	8.517	-10.14
CC(C)(C)NC(=O)CN1CCCN(Cc2ccc(C#N)cc2)CC1	9.051	28.75	6.383	12.5	0.6401	-14.09
CC(C)(C)OC(=O)NC1CCCN(Cc2cccs2)C1 (configuration not stated)	-11.28	-28.5	2.299	-5.128	-0.5818	-

From ChEMBL document CHEMBL3988442, “University of Dundee, Small-Polar-MMV Screening Library” (2021).